PubChem BioAssay AID2732 (Emory University Molecular Libraries Screening Center, 2010)
This is a selection; strong and weak results do not stand in their true shares. Calls of active or inactive are those of the source.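 How the source made its calls: active means compounds that reduced the stress-induced luciferase reporter signal by more than about 70% of percent inhibition (limit read from the data); inactive means the rest.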

Experiment: inhibitors of CHOP promoter induction, primary screen, cell-based, unfolded protein response, luciferase reporter (AID 2732);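 further: 0% = tunicamycin plus vehicle and 100% = wells without tunicamycin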
Conditions: CHO-K1 CHOP-promoter luciferase, tunicamycin-induced, 15-18 h; at 10 µM; hits give high values

inhibition, active:
Nc1nonc1-n1nnc(C(=O)N/N=C/c2ccc(OCc3ccc(F)cc3)cc2)c1COc1ccccc1 99.9%, COc1ccc2[nH]c3c(C)c4ccncc4c(C)c3c2c1 103%, COc1cc(CN2CCc3ccccc3C2)ccc1O 107%, CCc1ccc(Oc2coc3cc(OCC(=O)Nc4cc(C)ccc4C)ccc3c2=O)cc1 99%, CC(C)(C)C1CCC2(CC1)C(C#N)=C(SCC(=O)Nc1ccccc1)NC(=O)C2C#N (stereo not given) 105%
